Measured values from publication PMC13446905.
Results are given in words; binding and its absence hold for the method and conditions named. Binding seen in cells or lysates may run through a third protein. Some entries that bind do so weakly or less than the wild type. For part of these data: Sequences can lack the tags named with a protein.

Amino acid sequences for entries named in this document (tags omitted).
UniProt Q5S007: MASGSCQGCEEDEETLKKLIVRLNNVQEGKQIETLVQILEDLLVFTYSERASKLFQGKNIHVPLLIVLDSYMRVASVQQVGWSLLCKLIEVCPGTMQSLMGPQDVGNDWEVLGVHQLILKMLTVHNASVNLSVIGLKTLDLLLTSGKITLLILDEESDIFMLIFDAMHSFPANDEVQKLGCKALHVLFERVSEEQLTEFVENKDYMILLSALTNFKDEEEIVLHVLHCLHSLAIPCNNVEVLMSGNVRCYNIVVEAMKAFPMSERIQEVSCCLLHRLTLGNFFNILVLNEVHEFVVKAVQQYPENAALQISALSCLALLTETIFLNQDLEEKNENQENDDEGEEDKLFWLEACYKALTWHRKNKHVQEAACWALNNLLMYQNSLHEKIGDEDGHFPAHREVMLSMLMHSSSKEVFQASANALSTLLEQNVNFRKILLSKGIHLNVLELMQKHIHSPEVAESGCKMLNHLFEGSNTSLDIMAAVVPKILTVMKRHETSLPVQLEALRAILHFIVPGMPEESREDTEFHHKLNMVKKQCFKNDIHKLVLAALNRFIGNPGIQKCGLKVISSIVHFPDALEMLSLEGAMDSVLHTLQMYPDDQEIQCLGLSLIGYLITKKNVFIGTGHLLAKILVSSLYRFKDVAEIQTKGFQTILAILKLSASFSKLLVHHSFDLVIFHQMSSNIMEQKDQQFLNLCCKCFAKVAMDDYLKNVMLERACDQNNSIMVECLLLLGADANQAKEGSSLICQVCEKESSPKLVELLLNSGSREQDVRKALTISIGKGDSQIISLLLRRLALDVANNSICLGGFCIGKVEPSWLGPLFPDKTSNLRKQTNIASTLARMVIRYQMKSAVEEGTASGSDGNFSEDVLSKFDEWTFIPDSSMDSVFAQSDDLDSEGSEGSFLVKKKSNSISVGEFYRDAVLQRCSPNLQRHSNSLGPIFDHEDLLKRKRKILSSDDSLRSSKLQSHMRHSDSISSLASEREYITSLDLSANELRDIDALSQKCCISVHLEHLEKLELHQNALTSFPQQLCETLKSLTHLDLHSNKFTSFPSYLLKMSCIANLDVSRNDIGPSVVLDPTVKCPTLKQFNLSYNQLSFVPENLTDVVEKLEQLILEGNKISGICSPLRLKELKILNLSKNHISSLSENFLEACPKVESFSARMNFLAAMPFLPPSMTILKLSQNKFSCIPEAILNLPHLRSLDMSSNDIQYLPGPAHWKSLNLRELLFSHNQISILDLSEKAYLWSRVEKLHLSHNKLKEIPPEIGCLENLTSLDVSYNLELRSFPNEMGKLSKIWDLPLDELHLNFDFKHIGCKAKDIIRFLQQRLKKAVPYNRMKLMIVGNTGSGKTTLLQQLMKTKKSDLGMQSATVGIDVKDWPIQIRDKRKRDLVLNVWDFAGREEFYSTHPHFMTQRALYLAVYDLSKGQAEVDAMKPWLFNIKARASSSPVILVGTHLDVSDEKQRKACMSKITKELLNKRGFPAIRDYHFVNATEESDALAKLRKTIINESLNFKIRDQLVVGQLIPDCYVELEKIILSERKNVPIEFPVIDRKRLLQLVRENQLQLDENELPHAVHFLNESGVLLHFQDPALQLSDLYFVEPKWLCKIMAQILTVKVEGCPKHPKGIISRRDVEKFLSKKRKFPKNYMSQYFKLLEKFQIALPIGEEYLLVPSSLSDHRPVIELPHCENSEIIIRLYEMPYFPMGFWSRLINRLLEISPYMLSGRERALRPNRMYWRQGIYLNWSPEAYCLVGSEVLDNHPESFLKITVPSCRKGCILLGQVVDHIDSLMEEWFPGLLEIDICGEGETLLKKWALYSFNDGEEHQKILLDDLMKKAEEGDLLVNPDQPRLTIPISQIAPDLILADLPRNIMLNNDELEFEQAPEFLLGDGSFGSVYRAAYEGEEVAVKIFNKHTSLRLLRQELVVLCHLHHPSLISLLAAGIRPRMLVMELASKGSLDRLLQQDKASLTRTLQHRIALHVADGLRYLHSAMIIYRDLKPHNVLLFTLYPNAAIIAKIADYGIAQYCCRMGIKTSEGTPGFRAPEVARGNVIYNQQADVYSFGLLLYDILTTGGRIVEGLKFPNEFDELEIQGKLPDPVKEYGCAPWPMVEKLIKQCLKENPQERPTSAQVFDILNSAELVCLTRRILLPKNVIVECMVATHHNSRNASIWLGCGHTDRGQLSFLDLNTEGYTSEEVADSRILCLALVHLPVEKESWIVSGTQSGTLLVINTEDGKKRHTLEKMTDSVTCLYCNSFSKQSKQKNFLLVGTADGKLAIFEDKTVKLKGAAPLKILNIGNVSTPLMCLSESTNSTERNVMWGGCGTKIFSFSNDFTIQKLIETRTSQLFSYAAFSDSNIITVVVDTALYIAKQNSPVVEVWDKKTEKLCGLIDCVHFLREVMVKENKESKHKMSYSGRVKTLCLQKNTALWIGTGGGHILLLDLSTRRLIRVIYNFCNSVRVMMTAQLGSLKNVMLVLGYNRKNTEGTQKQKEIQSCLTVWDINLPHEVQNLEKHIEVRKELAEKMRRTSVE

B1: drebrin (protein, UniProt Q16643 1-649)
chain: MAGVSFSGHRLELLAAYEEVIREESAADWALYTYEDGSDDLKLAASGEGGLQELSGHFENQKVMYGFCSVKDSQAALPKYVLINWVGEDVPDARKCACASHVAKVAEFFQGVDVIVNASSVEDIDAGAIGQRLSNGLARLSSPVLHRLRLREDENAEPVGTTYQKTDAAVEMKRINREQFWEQAKKEEELRKEEERKKALDERLRFEQERMEQERQEQEERERRYREREQQIEEHRRKQQTLEAEEAKRRLKEQSIFGDHRDEEEETHMKKSESEVEEAAAIIAQRPDNPREFFKQQERVASASAGSCDVPSPFNHRPGSHLDSHRRMAPTPIPTRSPSDSSTASTPVAEQIERALDEVTSSQPPPLPPPPPPAQETQEPSPILDSEETRAAAPQAWAGPMEEPPQAQAPPRGPGSPAEDLMFMESAEQAVLAAPVEPATADATEIHDAADTIETDTATADTTVANNVPPAATSLIDLWPGNGEGASTLQGEPRAPTPPSGTEVTLAEVPLLDEVAPEPLLPAGEGCATLLNFDELPEPPATFCDPEEVEGESLAAPQTPTLPSALEELEQEQEPEPHLLTNGETTQKEGTQASEGYFSQSQEEEFAQSEELCAKAPPPVFYNKPPEIDITCWDADPVPEEEEGFEGGD

Key:
[1] = target: T1, YFP-drebrin N-terminal domain (1-256 aa) (human) (UniProt Q16643); test: co-IP; HEK293T co-expressing 3xFlag-LRRK2 and YFP-drebrin constructs; drebrin constructs immunoprecipitated with GFP-trap resin, co-precipitated LRRK2 detected by anti-Flag western blot
T1 sequence: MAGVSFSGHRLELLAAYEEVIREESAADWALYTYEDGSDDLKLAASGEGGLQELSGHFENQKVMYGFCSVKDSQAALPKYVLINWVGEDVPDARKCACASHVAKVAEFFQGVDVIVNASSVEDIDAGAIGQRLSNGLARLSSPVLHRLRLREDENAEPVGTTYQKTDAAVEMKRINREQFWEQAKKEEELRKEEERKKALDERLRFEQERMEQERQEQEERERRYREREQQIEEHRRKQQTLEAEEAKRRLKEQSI

[2] = target: T2, YFP-drebrin full-length (human) (UniProt Q16643); test: as above
T2 sequence: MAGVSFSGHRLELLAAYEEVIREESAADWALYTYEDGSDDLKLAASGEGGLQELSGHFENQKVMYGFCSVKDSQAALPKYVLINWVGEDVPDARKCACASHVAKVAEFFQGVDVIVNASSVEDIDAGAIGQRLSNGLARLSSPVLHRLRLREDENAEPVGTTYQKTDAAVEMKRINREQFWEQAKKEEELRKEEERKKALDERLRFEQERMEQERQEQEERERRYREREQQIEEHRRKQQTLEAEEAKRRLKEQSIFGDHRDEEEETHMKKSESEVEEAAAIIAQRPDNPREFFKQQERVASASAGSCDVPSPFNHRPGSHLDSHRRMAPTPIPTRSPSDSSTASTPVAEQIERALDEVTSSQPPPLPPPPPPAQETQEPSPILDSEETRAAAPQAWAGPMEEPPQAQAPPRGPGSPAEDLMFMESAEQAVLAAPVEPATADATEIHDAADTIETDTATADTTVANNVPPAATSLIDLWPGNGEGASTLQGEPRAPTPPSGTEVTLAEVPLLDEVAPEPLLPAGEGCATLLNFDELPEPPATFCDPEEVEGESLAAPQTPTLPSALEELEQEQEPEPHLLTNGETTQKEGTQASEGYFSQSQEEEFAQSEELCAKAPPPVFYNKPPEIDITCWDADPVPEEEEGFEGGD

GFP-LRRK2 wild-type = GFP-LRRK2 wild-type (UniProt Q5S007); test: co-IP; GFP-trap purification of GFP-LRRK2 from RA-differentiated SH-SY5Y lysates (same samples as for MS), unstimulated or with BDNF 15 min; also from mixes of GFP-LRRK2 OE and naive SH-SY5Y lysates at ratios 4:0 to 0:4; western blot for endogenous drebrin

Row | binding [1] | binding [2] | binding (GFP-LRRK2 wild-type) | Molecule
1 | binds | binds | – | 3xFlag-LRRK2 (from UniProt Q5S007 1-2527)
2 | – | – | binds | B1
